In paper PMC7766112 one finds binding data, which are given here for two molecules.

Results are given in words; binding and its absence hold for the method and conditions named. A result given as binding can be weak or reduced; the word gives no strength. For some assays here: In cells and extracts the contact can be indirect. For some assays here: Tags and fused reporters may be left off the sequences shown.

The target of test [1] is PsBELL1-2 transcription factor (Pisum sativum). As to the kind of experiment: two-hybrid; GAL4-based yeast two-hybrid, pDEST22 (prey) and pDEST32 (bait) in S. cerevisiae pJ6969-4A; growth on selective media SC-LTH and SC-LTAH, serial dilutions OD600 0.1 and 0.05.
Test [2] addresses PsBELL1-2 tagged with 6HIS (Pisum sativum). The test can be described thus: co-IP; E. coli lysates (50 mM tris-HCl pH 8.0, 1% Triton X-100, 150 mM NaCl) with PsBELL1-2-6HIS and PsDELLA1-FLAG co-incubated with anti-HIS MicroBeads (µMACS) for 1 h on ice; immunoblot with anti-FLAG and anti-HIS.

B1: PsDELLA1 (LA) protein (protein, UniProt B2BA72 1-592)
chain: MKRDRQETSGGGVSSNNNNSDNIISNNFVSVRGECSSMQNNNNNGKQSLWSEEKENSGGMDELLAALGYKVRSSDMLDVAQKLEQLEMVMGSAQEEGINHLASDTVHYDPTDLYSWVQTMLTELNPSTDSQINDPLDSSSSIFNDNSQYDLSVIPGMAAYPPQSHNQNSESEGSNSNKRLKTWGSETESEDIFLPALSPPAETTRPVVLVDSQETGVRLIHTMMACADAIQRDDIKIADRLVKNIGILASSQTGAMGKVASYFAQALYRRICRVSPDETLDSSLSDALHMHFYESSPYLKFAHFTANQAILEAFAGAGSVHVIDFGLKQGMQWPALMQALALRPGGPPTFRLTGIGPPQTGNTDALQQVGWKLAQLAQTIGVQFEFRGFVCNSLADLDPNMLEIRPGEAVAVNSVFELHTMLARPGSIDKVLNTVKKINPKIVTIVEQEANHNGPVFMDRFTEALHYYSSLFDSLEGSSNSNPAGSGSSSQDLLMSELYLGRQICNVVAYEGVDRVERHETLSQWRSRMGSAGFDPVHLGSNAFKQASTLLALFAGGDGYRVEENNGCLMLGWHTRSLIATSAWKLPLSESK
As to B1, the binding entry in test [1] was “binds”.

B2: PsDELLA1 tagged with FLAG (protein, UniProt B2BA72 1-592)
chain: B1 chain
Take B2: in test [2], the binding entry was “binds”.
